{"source": "patent US9968652B2", "about": "“Optically-controlled CNS dysfunction” (The Board of Trustees of the Leland Stanford Junior …, priority 2010, dated 2018)", "tested_on": "CeM neurons", "test": "Bath application of bicuculline on IPSCs, voltage-clamp at 0 mV in acute slices", "assay_type": "cell-based, mice", "conditions": "10 μM, n=2", "note": "At least one structure is not confirmed: it was looked up by name or label, or the drawing left a doubt."}
{"smiles": "CN1CCc2cc3c(cc2[C@H]1[C@@H]1OC(=O)c2c1ccc1c2OCO1)OCO3", "note": "[bicuculline]", "values": [{"measurement": "IPSCs", "value": "abolished"}]}
